The structures appear in SMILES notation. The list shows a part of the results. Shown are side measurements of this screen, not its main read-out; they come without a call. Compounds called inactive in the main read-out are mostly missing here. The note in brackets gives the kind of curve behind each potency; many fits are weak.

The nature of the assay: qHTS Assay for Lipid Storage Modulators in Drosophila S3 Cells.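 On cell number change: cells counted by Cell Tracker Red CMTPX staining in the red channel.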 Particulars: BODIPY lipid droplet fluorescence, 18-24 h; for cell number change: measured here: cell count max response, cells fed with added oleic acid. The method, boiled down:
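Laser-scanning cytometry quantifies lipid droplet accumulation (500–530 nm total intensity; droplet/cell object ratio) in oleic acid-fed (400 uM added) Drosophila S3 cells treated with a concentration series. 20 uM Triacsin C defined 100% inhibition.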

[1] abbreviates: measured here: lipid fluorescence (Fed channel) AC50, cells fed with added oleic acid.
The mark [2] stands for this setting: measured here: cell number channel AC50, cells fed with added oleic acid.

For `COc1ccc(CN2CCNC(=O)C2CC(=O)NCCc2cnccn2)cc1C` (centres undefined), the cell number change came out at 2.49%.

As to `COc1ccc(NC(=O)N(Cc2cc3cc(C)ccc3[nH]c2=O)CC2CCCO2)cc1` (centres undefined), the cell number change is 19.2%. Also, the AC50 under setting [1] was 0.231 µM [rising, full curve, poor fit].

Turning to `Cn1c(=O)c2cc(S(=O)(=O)NCCC(=O)NCC3CCCO3)ccc2n(C)c1=O` (centres undefined), the half-maximal activity concentration (AC50) reads like this: under setting [2], 6.51 µM [falling, single point]; under setting [1], 6.51 µM [falling, single point].

On to `O=C(CNC(c1ccccc1)c1ccccc1)Nc1ccccc1-c1ccccc1`, for which the cell number change was -18.1%. Further, the half-maximal activity concentration (AC50) under setting [1] was 18.4 µM [falling, single point].

Turning to `CCCOC(=O)C1[C@H]2C(=O)N(C(C)c3ccc(OC)cc3)C[C@]23C=C[C@H]1O3` (some centres undefined), the cell number change worked out at 19.5%. The AC50 under setting [2] is 0.92 µM [rising, full curve, poor fit].

Regarding `COc1ccc(CNC(=O)CN(Cc2ccc(OC)cc2)C(=O)CCC(=O)Nc2ccccn2)cc1`, the cell number change is 28.2%. Further, under setting [2], the AC50 was 1.84 µM [rising, full curve, poor fit].

Turning to `O=C(c1ccco1)N1CCN(C(=O)c2ccc(-c3cccc(C(F)(F)F)c3)o2)CC1`, the cell number change was -44.4%. Moreover, the half-maximal activity concentration (AC50) under setting [2] was 32.6 µM [falling, single point]. Besides, the concentration at half-maximal activity (AC50) under setting [1] is 29.1 µM [falling, single point].

For the molecule `O=C(Cn1c(=O)sc2ccccc21)Nc1ccc(S(=O)(=O)N2CCCC2)cc1`, the cell number change came out at 53.4%. Also, the AC50 under setting [2] was 11.6 µM [rising, partial curve]. Also, under setting [1], the AC50 is 20.6 µM [rising, partial curve].

`O=C(NCCN1CCOCC1)c1cc([N+](=O)[O-])ccc1Cl`: the cell number change was 8.8%. The half-maximal activity concentration (AC50) under setting [1] was 29.1 µM [rising, single point].

For `COc1cccc(C2C(C(=O)c3cccs3)=C(O)C(=O)N2CCN2CCOCC2)c1OC` (centres undefined), the cell number change came to 12.5%.

For `CC1CCCN(C(=O)c2ccc(COc3ccccc3Br)cc2)C1` (centres undefined), the cell number change was -42.4%. For the same molecule, the AC50 under setting [2] is 1.64 µM [falling, partial curve].

On to `Cc1ccc(CNC(=O)Cn2cnc3c(NC(=O)OCc4ccccc4)ncnc32)o1`, for which the cell number change is -20.1%. Moreover, the AC50 under setting [2] was 0.517 µM [falling, partial curve]. For the same molecule, the concentration at half-maximal activity (AC50) under setting [1] is 0.116 µM [falling, full curve, poor fit].

Take `CCCNc1ccc(S(=O)(=O)N(C(C)C)C(C)C)cn1`: the cell number change came to 14.7%. For the same molecule, the AC50 under setting [1] was 29.1 µM [rising, single point].

As to `Cc1cc(C)n2nc(-c3ccccc3)c(-c3ccccc3)c2n1`, the cell number change is -2.65%.

In the case of `COc1ccccc1OCCNC(=O)CN1C(=O)NC2(CCCC2)C1=O`, the cell number change was -50%. Besides, under setting [2], the half-maximal activity concentration (AC50) was 29.1 µM [falling, single point].

As for `CCOc1ccc2[nH]cc(C(=O)NCc3ccccc3)c(=O)c2c1`, the cell number change was -19.4%. For the same molecule, the AC50 under setting [1] is 29.1 µM [falling, single point].

As to `COc1ccc(C(=O)/C(=C\c2ccco2)N2C=CC=CC2=C(C#N)C#N)cc1`, the cell number change is -62.1%. In addition, under setting [2], the half-maximal activity concentration (AC50) was 29.1 µM [falling, single point]. Under setting [1], the AC50 is 14.6 µM [falling, partial curve].

Take `CCCCNC(=O)c1cn(CC)c2cc(N3CCN(C(=O)c4ccco4)CC3)c(F)cc2c1=O`: the cell number change was determined as 11.5%.

As to `CCC(C)NC(=O)CCn1ccc2cc(S(=O)(=O)N3CCCC3)ccc21` (centres undefined), the cell number change was 16.4%. Besides, the AC50 under setting [1] is 29.1 µM [rising, single point].

For `Cc1cccc2nc(CSc3nc4ccccc4o3)cn12`, the cell number change was determined as 24.3%. The AC50 under setting [1] was 4.11 µM [rising, full curve].

As for `CCCCOCCCNC(=O)c1ccc(OC)cc1`, the half-maximal activity concentration (AC50) under setting [2] is 5.17 µM [falling, partial curve, poor fit].

As to `CCN(CC)c1ccc(NS(=O)(=O)c2cn(C)c(=O)n(C)c2=O)c(C)c1`, the cell number change is -26.2%.

For `CCP(=O)(c1ccccc1)C(C)(C)O` (centres undefined), the cell number change was -34.6%. Moreover, under setting [2], the AC50 was 16.4 µM [falling, single point]. Further, under setting [1], the AC50 is 18.4 µM [falling, single point].

Take `COc1ccc(O)c(CN2CCCC(N3CCc4ccccc4C3)C2)c1` (centres undefined): the cell number change amounted to 19.5%. Further, the half-maximal activity concentration (AC50) under setting [1] was 29.1 µM [rising, single point].

With `COc1ccccc1CNC(=O)[C@@H]1CCCN1S(=O)(=O)c1ccc(C)cc1`, the cell number change came out at 0.677%.

With `COCc1cc(Sc2c(Cl)cccc2Cl)nc(-c2ccccc2)n1`, the cell number change is -24.2%.

For `Cc1ccc(-c2noc(CN(C(=O)c3cccc(Br)c3)C(C)C)n2)cc1`, the cell number change amounted to 6.72%. Besides, the AC50 under setting [1] is 0.0731 µM [rising, full curve, poor fit].

Take `CC(C)Oc1ccc(C(CC(=O)O)NC(=O)Cc2ccc(Cl)cc2)cc1` (centres undefined): the cell number change was -2.95%. Besides, the concentration at half-maximal activity (AC50) under setting [1] was 20.6 µM [rising, single point].

For the molecule `O=C(CN(Cc1ccc(Cl)cc1)C(=O)c1csnn1)NCc1ccc(F)cc1`, the cell number change came out at 8.97%.

As for `O=C(CCc1ccncc1)NC1CCCc2c1cnn2-c1cc(F)cc(F)c1` (centres undefined), the concentration at half-maximal activity (AC50) under setting [1] is 29.1 µM [rising, single point].

As for `NC(=O)c1nc(C(=O)N2CCN(c3ccccc3)CC2)c2ccccc2n1`, the cell number change was found to be 16%. Further, the concentration at half-maximal activity (AC50) under setting [1] was 0.0058 µM [falling, full curve, poor fit].

Turning to `CC(C)C(=O)Nc1ccc(Cl)cc1-c1nc2ccccc2[nH]c1=O`, under setting [1], the AC50 is 0.103 µM [falling, full curve, poor fit].

For the molecule `Cn1nnnc1SCC(=O)c1c(N)n(C2CC2)c(=O)[nH]c1=O`, the cell number change came out at 5.91%.

Consider `COc1ccc2c(c1)C(=O)N(c1ccccc1C)C(=O)C2(C)C`, for which the cell number change turned out to be 63.8%. Moreover, the AC50 under setting [2] is 5.8 µM [rising, full curve].

On to `Cc1ccc(-c2nc(-c3ccncc3)no2)cc1C`, for which the cell number change was -28%.

As for `Cc1cccn2c(=O)c(C(=O)NC3CCCCC3C)c(O)nc12` (centres undefined), the cell number change is -26.9%. Under setting [2], the AC50 is 3.66 µM [falling, full curve, poor fit]. Besides, the AC50 under setting [1] is 20.6 µM [falling, single point].

In the case of `Clc1ccc(Cc2nc(-c3cccnc3)no2)cc1`, the cell number change came out at 10.3%. The concentration at half-maximal activity (AC50) under setting [1] was 29.1 µM [rising, single point].

Take `O=C(CCCOc1ccc(Cl)cc1Cl)N/N=C/c1ccc(Cl)cc1`: the cell number change is -67.8%. Moreover, the half-maximal activity concentration (AC50) under setting [2] was 14.6 µM [falling, partial curve]. Moreover, the AC50 under setting [1] was 16.4 µM [falling, single point].

As for `CC1=CC(C)(C)Nc2ccc(OC(=O)C(Cc3ccccc3)N3C(=O)c4ccccc4C3=O)cc21` (centres undefined), the cell number change came out at 22.8%. Besides, under setting [1], the AC50 is 1.3 µM [rising, full curve].

As for `Cc1ccc(S(=O)(=O)N(C)c2ccc(OCC(=O)N3CCCCC3)cc2)cc1`, the cell number change stood at 12%. The AC50 under setting [1] is 3.26 µM [rising, single point].
